Test results as given in the supplement of paper PMC10849652.
The list shows a part of the results.

By UniProt entry, the sequences of proteins in these tests, tags left out. Where a name states a change or a piece, a line headed by the entry shows the natural chain unless it says otherwise.
UniProt Q9NRG9: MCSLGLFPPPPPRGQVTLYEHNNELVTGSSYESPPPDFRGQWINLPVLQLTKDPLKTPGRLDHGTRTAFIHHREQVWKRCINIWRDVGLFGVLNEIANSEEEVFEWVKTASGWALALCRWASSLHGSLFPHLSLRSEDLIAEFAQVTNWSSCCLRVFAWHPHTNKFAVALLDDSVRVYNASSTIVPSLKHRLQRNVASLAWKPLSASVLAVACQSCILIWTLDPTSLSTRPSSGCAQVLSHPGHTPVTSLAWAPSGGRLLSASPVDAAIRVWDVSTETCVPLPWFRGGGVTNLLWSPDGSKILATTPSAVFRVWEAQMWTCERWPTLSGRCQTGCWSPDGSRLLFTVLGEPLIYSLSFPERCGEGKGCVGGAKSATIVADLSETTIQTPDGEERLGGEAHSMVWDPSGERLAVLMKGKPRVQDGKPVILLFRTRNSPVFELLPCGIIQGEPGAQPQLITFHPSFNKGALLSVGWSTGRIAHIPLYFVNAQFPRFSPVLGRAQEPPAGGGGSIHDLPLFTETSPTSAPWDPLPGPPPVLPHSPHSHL
UniProt P21399: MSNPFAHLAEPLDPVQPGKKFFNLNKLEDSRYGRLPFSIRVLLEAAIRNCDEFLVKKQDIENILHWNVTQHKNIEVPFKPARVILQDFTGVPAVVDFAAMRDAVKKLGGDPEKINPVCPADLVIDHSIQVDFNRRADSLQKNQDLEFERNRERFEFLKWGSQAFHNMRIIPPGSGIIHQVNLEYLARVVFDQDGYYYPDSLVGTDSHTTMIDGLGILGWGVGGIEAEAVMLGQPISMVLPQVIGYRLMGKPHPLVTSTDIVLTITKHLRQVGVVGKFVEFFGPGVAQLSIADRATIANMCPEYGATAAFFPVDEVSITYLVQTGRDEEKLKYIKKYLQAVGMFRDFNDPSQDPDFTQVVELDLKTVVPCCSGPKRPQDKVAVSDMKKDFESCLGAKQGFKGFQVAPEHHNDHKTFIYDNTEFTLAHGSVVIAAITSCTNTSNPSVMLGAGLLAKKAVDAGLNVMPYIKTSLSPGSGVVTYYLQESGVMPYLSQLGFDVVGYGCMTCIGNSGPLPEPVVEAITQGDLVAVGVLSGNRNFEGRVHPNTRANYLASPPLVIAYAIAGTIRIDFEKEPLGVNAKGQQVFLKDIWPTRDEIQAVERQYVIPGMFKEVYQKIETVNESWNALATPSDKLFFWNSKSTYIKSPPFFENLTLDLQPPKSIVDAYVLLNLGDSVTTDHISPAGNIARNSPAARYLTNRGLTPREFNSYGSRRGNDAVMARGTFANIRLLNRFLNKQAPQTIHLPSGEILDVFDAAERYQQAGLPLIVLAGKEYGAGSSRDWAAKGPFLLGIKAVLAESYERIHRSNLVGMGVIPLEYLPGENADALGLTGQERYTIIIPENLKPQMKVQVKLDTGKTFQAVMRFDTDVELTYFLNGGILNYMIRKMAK
UniProt Q9NUJ1: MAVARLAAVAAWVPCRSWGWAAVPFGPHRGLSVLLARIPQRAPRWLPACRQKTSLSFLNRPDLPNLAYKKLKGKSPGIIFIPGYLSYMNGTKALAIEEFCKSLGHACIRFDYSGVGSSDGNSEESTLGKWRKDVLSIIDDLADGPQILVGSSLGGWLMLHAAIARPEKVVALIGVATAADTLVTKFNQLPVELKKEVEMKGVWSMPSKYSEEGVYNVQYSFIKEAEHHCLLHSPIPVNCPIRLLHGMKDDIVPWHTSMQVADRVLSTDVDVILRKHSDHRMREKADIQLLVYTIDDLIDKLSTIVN
UniProt Q9NRK6: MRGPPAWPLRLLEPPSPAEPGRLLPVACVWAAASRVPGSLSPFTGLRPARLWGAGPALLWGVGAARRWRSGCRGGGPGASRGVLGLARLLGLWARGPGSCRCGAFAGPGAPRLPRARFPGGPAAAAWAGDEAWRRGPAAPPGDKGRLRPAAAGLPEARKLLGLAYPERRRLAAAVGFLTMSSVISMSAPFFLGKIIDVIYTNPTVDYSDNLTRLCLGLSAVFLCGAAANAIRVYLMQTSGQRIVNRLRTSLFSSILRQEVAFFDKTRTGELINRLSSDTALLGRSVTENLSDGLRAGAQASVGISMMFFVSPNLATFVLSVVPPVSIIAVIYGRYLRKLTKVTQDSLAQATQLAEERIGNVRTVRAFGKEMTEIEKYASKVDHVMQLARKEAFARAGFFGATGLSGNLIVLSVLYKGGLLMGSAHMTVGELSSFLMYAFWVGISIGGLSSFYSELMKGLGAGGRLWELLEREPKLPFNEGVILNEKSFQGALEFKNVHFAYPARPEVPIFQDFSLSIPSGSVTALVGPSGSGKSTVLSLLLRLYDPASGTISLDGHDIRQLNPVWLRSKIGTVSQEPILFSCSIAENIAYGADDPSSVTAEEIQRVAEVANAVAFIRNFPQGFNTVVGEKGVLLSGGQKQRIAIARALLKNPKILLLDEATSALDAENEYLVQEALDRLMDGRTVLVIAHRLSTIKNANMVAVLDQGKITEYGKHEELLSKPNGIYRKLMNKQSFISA
UniProt Q9BTE6: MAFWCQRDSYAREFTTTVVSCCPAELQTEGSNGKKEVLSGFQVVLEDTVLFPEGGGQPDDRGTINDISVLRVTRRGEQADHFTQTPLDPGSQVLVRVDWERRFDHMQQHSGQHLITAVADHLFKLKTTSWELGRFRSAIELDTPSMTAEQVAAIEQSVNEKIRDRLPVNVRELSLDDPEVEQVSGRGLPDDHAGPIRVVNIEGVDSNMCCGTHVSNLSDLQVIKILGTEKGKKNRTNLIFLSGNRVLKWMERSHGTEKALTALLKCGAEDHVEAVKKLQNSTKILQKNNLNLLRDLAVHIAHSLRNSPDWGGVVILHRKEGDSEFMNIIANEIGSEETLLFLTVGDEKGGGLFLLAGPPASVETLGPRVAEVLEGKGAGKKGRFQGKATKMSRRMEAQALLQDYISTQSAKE
UniProt Q96GS6: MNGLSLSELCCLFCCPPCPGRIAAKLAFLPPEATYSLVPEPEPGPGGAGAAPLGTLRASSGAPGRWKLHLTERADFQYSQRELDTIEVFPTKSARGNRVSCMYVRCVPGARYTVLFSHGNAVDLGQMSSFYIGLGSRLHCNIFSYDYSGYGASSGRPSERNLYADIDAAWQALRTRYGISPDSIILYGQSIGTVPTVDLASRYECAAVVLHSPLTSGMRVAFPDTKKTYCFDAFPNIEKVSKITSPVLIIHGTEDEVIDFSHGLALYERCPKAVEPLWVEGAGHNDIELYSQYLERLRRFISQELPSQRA
UniProt Q6PD74: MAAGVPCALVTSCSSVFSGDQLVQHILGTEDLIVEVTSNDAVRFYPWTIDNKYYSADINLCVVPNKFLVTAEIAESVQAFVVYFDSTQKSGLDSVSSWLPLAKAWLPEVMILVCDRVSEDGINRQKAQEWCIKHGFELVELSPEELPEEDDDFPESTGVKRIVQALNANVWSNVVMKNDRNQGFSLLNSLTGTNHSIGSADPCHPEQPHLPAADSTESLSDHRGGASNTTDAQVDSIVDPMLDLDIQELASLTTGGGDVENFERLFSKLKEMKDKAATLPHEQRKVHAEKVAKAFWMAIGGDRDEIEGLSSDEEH
UniProt Q8NE71: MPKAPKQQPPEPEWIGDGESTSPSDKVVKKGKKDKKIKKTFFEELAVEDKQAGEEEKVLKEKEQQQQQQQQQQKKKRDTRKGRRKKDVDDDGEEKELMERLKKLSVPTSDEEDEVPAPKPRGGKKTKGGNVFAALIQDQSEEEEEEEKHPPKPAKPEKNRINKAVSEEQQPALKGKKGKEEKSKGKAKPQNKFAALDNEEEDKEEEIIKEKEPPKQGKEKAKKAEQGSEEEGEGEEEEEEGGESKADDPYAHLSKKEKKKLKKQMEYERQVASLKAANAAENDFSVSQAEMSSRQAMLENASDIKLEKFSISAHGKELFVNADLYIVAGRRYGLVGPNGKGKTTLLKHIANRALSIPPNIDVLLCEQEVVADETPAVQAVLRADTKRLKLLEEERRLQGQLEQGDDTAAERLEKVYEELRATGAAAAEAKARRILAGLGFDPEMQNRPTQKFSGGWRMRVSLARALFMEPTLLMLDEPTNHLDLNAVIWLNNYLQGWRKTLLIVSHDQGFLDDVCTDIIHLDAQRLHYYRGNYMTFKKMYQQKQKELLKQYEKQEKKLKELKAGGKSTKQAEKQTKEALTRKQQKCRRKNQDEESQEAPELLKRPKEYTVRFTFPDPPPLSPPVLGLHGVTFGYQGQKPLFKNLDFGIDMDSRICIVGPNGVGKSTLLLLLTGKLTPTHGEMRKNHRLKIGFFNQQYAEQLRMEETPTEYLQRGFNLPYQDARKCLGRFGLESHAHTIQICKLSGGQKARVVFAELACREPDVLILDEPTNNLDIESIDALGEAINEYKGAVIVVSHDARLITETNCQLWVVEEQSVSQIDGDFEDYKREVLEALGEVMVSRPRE
UniProt Q15057: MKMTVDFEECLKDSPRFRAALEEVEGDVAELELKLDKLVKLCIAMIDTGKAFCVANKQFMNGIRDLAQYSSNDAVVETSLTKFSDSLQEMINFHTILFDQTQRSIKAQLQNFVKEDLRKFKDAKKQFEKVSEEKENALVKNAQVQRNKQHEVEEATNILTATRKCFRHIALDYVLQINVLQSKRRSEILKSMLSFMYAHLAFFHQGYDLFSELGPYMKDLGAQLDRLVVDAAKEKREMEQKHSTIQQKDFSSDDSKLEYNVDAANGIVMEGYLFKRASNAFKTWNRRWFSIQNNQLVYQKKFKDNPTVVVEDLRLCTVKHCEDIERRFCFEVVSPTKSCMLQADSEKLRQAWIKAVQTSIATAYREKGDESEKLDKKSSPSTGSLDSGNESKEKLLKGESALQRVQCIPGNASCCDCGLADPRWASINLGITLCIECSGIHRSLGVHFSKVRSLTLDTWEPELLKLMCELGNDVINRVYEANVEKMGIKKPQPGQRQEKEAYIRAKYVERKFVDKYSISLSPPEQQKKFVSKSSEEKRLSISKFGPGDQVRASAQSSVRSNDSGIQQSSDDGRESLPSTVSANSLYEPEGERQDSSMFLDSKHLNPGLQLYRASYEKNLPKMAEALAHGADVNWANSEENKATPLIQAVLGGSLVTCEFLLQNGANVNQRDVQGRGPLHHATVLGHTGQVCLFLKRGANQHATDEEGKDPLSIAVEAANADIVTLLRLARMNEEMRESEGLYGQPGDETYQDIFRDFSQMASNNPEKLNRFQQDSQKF
UniProt Q9H7C9: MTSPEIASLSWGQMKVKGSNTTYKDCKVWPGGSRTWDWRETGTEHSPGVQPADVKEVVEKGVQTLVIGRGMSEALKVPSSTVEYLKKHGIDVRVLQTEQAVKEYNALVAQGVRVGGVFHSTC
UniProt Q9H845: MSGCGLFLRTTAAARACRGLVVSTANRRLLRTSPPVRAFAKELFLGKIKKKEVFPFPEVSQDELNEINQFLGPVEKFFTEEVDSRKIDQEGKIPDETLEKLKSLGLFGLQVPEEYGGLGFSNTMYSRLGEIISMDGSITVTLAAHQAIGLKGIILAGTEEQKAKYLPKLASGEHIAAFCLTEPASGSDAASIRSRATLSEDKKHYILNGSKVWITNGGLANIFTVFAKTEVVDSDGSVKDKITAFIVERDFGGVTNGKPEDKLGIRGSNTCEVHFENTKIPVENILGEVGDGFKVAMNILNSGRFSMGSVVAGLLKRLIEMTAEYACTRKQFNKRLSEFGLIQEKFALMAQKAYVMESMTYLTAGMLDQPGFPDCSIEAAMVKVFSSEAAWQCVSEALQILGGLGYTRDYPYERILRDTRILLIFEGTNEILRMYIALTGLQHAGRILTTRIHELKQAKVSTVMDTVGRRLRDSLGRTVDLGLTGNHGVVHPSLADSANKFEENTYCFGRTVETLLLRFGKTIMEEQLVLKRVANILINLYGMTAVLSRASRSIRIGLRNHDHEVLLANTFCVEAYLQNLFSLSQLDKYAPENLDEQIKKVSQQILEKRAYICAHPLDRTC
UniProt Q86V21: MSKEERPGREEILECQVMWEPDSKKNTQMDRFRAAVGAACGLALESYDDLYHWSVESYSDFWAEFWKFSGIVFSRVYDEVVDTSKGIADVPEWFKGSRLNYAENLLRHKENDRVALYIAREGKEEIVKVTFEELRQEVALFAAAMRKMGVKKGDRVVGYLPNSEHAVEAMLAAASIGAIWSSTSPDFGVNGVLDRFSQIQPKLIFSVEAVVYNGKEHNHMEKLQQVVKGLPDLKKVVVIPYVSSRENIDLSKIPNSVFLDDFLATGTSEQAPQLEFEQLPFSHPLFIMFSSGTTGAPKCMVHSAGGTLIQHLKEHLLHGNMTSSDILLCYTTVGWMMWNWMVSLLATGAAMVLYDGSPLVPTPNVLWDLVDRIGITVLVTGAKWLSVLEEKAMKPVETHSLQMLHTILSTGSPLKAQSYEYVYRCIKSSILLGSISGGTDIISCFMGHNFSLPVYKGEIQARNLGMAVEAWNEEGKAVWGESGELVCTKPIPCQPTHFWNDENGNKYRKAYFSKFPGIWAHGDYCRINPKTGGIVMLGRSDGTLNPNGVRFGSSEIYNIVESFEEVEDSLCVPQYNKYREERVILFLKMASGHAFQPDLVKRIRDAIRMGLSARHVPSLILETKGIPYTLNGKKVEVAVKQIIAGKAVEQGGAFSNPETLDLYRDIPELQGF

Assays:
Test in all cases: log2 fold change, soluble protein after heating vs DMSO (PISA); higher = thermal stabilisation; K562 lysate, 10 uM; active = over 0.2 and 3.5 SD of the protein, either way, in both replicates (recomputed)
vemurafenib = compound: CCCS(=O)(=O)Nc1ccc(F)c(C(=O)c2c[nH]c3ncc(-c4ccc(Cl)cc4)cc23)c1F [vemurafenib]
In short: (§1)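 Log-two fold change in thermal stability relative to solvent controls is reported from duplicates. For each sample, crude K562 extract from dounce-homogenised pellets in PBS pH 7.4 with 1 mM MgCl2, at 1 mg/mL protein, was treated with 10 μM compound for 30 min. Aliquots heated for 3 min across 48°C-58°C were pooled, brought to 0.5% NP-40 at 4°C and cleared at 21,000xg for 90 min. The supernatant was quantified by TMTpro 16plex LC-MS/MS with channel sums equalised.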

[1] = compound: CCCS(=O)(=O)Nc1ccc(F)c(C(=O)c2c[nH]c3ncc(Cl)cc23)c1F
In short: as §1

barasertib = compound: CCN(CCCOc1ccc2c(Nc3cc(CC(=O)Nc4cccc(F)c4)[nH]n3)ncnc2c1)CCOP(=O)(O)O [barasertib]
In short: as §1

[2] = compound: CC[C@@H]1C(=O)N(C)c2cnc(Nc3ccc(C(=O)NC4CCN(C)CC4)cc3OC)nc2N1C1CCCC1
In short: as §1

volasertib = compound: CC[C@@H]1C(=O)N(C)c2cnc(Nc3ccc(C(=O)N[C@H]4CC[C@H](N5CCN(CC6CC6)CC5)CC4)cc3OC)nc2N1C(C)C [volasertib]
In short: as §1

[3] = compound: CCn1c(C(=O)N(C2CC2)C2CC2)cc2c3c(ncn3C)c(Nc3cc(C)n(C)n3)nc21
In short: as §1

[4] = compound: CCn1cc(-c2ccnc3[nH]c(-c4cccc(CN(C)C)c4)cc23)c(-c2ccc(NC(=O)N(C)C)cc2)n1
In short: as §1

[5] = compound: CN1CCC(CNc2ccc3ncc(-c4cccc(OC(F)(F)F)c4)n3n2)CC1
In short: as §1

saracatinib = compound: CN1CCN(CCOc2cc(OC3CCOCC3)c3c(Nc4c(Cl)ccc5c4OCO5)ncnc3c2)CC1 [saracatinib]
In short: as §1

sotrastaurin = compound: CN1CCN(c2nc(C3=C(c4c[nH]c5ccccc45)C(=O)NC3=O)c3ccccc3n2)CC1 [sotrastaurin]
In short: as §1

alvocidib = compound: CN1CC[C@H](c2c(O)cc(O)c3c(=O)cc(-c4ccccc4Cl)oc23)[C@H](O)C1 [alvocidib]
In short: as §1

Tubastatin A = compound: CN1CCc2c(c3ccccc3n2Cc2ccc(C(=O)NO)cc2)C1 [Tubastatin A]
In short: as §1

[6] = compound: CNC(=O)C1=CC=CC=C1NC2=NC(=NC=C2Cl)NC3=C(C=C(C=C3)N4CCOCC4)OC
In short: as §1

defactinib = compound: CNC(=O)c1ccc(Nc2ncc(C(F)(F)F)c(NCc3nccnc3N(C)S(C)(=O)=O)n2)cc1 [defactinib]
In short: as §1

[7] = compound: CNc1nc(-c2ccc3c(N)n[nH]c3c2)cc(N2C[C@@H](C(=O)NC3CCCCC3)CC[C@H]2C)n1
In short: as §1

encorafenib = compound: COC(=O)N[C@@H](C)CNc1nccc(-c2cn(C(C)C)nc2-c2cc(Cl)cc(NS(C)(=O)=O)c2F)n1 [encorafenib]
In short: as §1

[8] = compound: COC(=O)[C@H](CCSC)NC(=O)C1=C(C=C(C=C1)NC[C@H](CS)N)C2=CC=CC=C2
In short: as §1

alisertib = compound: COc1cc(Nc2ncc3c(n2)-c2ccc(Cl)cc2C(c2c(F)cccc2OC)=NC3)ccc1C(=O)O [alisertib]
In short: as §1

[9] = compound: COc1cc2nc(-c3cc(F)ccc3O)nc(N[C@@H]3CNC[C@H]3C(C)(C)O)c2cc1OC
In short: as §1

gefitinib = compound: COc1cc2ncnc(Nc3ccc(F)c(Cl)c3)c2cc1OCCCN1CCOCC1 [gefitinib]
In short: as §1

Measured: log2 fold change

AAAS (UniProt Q9NRG9)
inactive: vemurafenib 0.038 | [1] 0.06 | barasertib 0.023 | [2] 0.034 | volasertib -0.001 | [3] 0.008 | [4] -0.007 | [5] -0.053 | saracatinib 0.019 | sotrastaurin -0.038 | alvocidib 0.009 | Tubastatin A -0.064 | [6] -0.014 | defactinib -0.001 | [7] 0.028 | encorafenib 0.028 | [8] -0.197 | alisertib 0.041 | [9] -0.028 | gefitinib -0.038

ACO1 (UniProt P21399)
inactive: vemurafenib -0.011 | [1] 0.024 | barasertib 0.01 | [2] -0.028 | volasertib -0.031 | [3] 0.033 | [4] -0.064 | [5] 0.006 | saracatinib -0.011 | sotrastaurin 0.009 | alvocidib 0.021 | Tubastatin A 0.019 | [6] 0.006 | defactinib -0.006 | [7] -0.048 | encorafenib 0.005 | [8] -0.05 | alisertib -0.001 | [9] 0.001 | gefitinib -0.008

ABHD10 (UniProt Q9NUJ1)
inactive: vemurafenib -0.017 | [1] 0.006 | barasertib 0.003 | [2] 0.06 | volasertib 0.029 | [3] 0.006 | [4] 0.072 | [5] -0.009 | saracatinib -0.001 | sotrastaurin 0 | alvocidib 0.007 | Tubastatin A 0.011 | [6] -0.002 | defactinib -0.025 | [7] 0.042 | encorafenib -0.002 | [8] -0.045 | alisertib -0.002 | [9] -0.019 | gefitinib 0.02

A0A096LPI6, A0A096LPI6
inactive: vemurafenib 0.002 | [1] 0.021 | barasertib 0.018 | [2] 0.003 | volasertib 0.026 | [3] -0.005 | [4] 0.091 | [5] -0.047 | saracatinib -0.01 | sotrastaurin -0.052 | alvocidib 0.005 | Tubastatin A 0.055 | [6] 0.043 | defactinib -0.016 | [7] 0.068 | encorafenib -0.038 | [8] 0.012 | alisertib -0.011 | [9] -0.03 | gefitinib 0.004

ABHD5 (UniProt Q8WTS1)
inactive: vemurafenib 0.083 | [1] 0.021 | barasertib -0.015 | [2] 0.069 | volasertib -0.031 | [3] -0.045 | [4] 0 | [5] -0.217 | saracatinib -0.062 | sotrastaurin 0.008 | alvocidib 0.066 | Tubastatin A -0.014 | [6] -0.014 | defactinib -0.044 | [7] -0.12 | encorafenib -0.067 | [8] -0.046 | alisertib 0.006 | [9] 0.079 | gefitinib 0.013

ABCB10 (UniProt Q9NRK6)
inactive: vemurafenib 0.034 | [1] -0.013 | barasertib -0.029 | [2] -0.013 | volasertib 0.022 | [3] 0.023 | [4] -0.082 | [5] -0.082 | saracatinib -0.014 | sotrastaurin 0.046 | alvocidib -0.023 | Tubastatin A 0.074 | [6] 0.068 | defactinib 0.022 | [7] -0.038 | encorafenib -0.003 | [8] 0.019 | alisertib 0.007 | [9] -0.032 | gefitinib 0.021

AASDHPPT (UniProt Q9NRN7)
inactive: vemurafenib 0.007 | [1] 0 | barasertib -0.025 | [2] 0.008 | volasertib -0.009 | [3] -0.003 | [4] -0.055 | [5] 0.017 | saracatinib -0.018 | sotrastaurin -0.023 | alvocidib 0.007 | Tubastatin A 0.02 | [6] -0.03 | defactinib -0.02 | [7] -0.021 | encorafenib -0.022 | [8] -0.147 | alisertib 0.025 | [9] -0.01 | gefitinib -0.012

AARSD1 isoform 3 (UniProt Q9BTE6)
inactive: vemurafenib 0.029 | [1] 0.008 | barasertib 0.036 | [2] -0.059 | volasertib -0.024 | [3] 0.034 | [4] -0.009 | [5] -0.104 | saracatinib 0.035 | sotrastaurin 0.008 | alvocidib 0.046 | Tubastatin A -0.034 | [6] -0.036 | defactinib -0.012 | [7] -0.053 | encorafenib -0.021 | [8] 0.148 | alisertib 0.001 | [9] 0.014 | gefitinib 0

ABHD17A isoform 2 (UniProt Q96GS6)
inactive: vemurafenib -0.007 | [1] -0.08 | barasertib 0.007 | [2] 0.036 | volasertib 0.012 | [3] 0.022 | [4] 0.001 | [5] 0.013 | saracatinib -0.027 | sotrastaurin -0.05 | alvocidib -0.025 | Tubastatin A 0.023 | [6] -0.025 | defactinib -0.009 | [7] 0.01 | encorafenib -0.009 | [8] -0.222 | alisertib -0.12 | [9] 0.04 | gefitinib 0.044

AAGAB (UniProt Q6PD74)
inactive: vemurafenib 0.055 | [1] 0.037 | barasertib -0.029 | [2] -0.004 | volasertib -0.027 | [3] -0.007 | [4] 0.019 | [5] -0.022 | saracatinib 0.044 | sotrastaurin 0.018 | alvocidib -0.015 | Tubastatin A -0.06 | [6] 0.02 | defactinib -0.027 | [7] -0.025 | encorafenib 0.034 | [8] 0.039 | alisertib -0.016 | [9] -0.045 | gefitinib 0.013

ABCF1 (UniProt Q8NE71)
inactive: vemurafenib 0.036 | [1] 0.018 | barasertib 0.016 | [2] -0.056 | volasertib -0.011 | [3] 0.011 | [4] -0.033 | [5] -0.017 | saracatinib 0.005 | sotrastaurin 0.042 | alvocidib -0.003 | Tubastatin A -0.009 | [6] 0.006 | defactinib 0.001 | [7] -0.011 | encorafenib -0.012 | [8] 0.053 | alisertib 0.009 | [9] 0.002 | gefitinib -0.023

ACAP2 (UniProt Q15057)
inactive: vemurafenib 0.031 | [1] 0.001 | barasertib 0.005 | [2] -0.021 | volasertib -0.017 | [3] 0.019 | [4] 0.021 | [5] -0.041 | saracatinib 0.027 | sotrastaurin -0.017 | alvocidib 0.013 | Tubastatin A -0.023 | [6] 0.001 | defactinib -0.016 | [7] -0.019 | encorafenib -0.007 | [8] 0.101 | alisertib 0.005 | [9] 0.01 | gefitinib -0.013

AAMDC (UniProt Q9H7C9)
inactive: vemurafenib -0.011 | [1] -0.018 | barasertib 0.122 | [2] 0.031 | volasertib 0.03 | [3] 0.017 | [4] -0.033 | [5] -0.032 | saracatinib 0.009 | sotrastaurin -0.021 | alvocidib 0.006 | Tubastatin A 0.034 | [6] 0.043 | defactinib 0.115 | [7] -0.026 | encorafenib 0.001 | [8] -0.044 | alisertib 0.04 | [9] -0.018 | gefitinib -0.091

ACAD9 (UniProt Q9H845)
inactive: vemurafenib -0.044 | [1] 0 | barasertib 0.01 | [2] -0.015 | volasertib 0.013 | [3] -0.015 | [4] -0.053 | [5] 0.019 | saracatinib -0.03 | sotrastaurin -0.016 | alvocidib -0.036 | Tubastatin A 0.025 | [6] -0.018 | defactinib -0.002 | [7] -0.041 | encorafenib 0.022 | [8] -0.015 | alisertib -0.019 | [9] 0.024 | gefitinib 0.022

AACS (UniProt Q86V21)
inactive: vemurafenib 0.033 | [1] -0.059 | barasertib 0.078 | [2] -0.017 | volasertib -0.037 | [3] 0.064 | [4] 0.01 | [5] -0.07 | saracatinib 0.013 | sotrastaurin 0.012 | alvocidib 0 | Tubastatin A -0.056 | [6] 0.019 | defactinib 0 | [7] -0.101 | encorafenib -0.024 | [8] 0.058 | alisertib 0.015 | [9] 0.013 | gefitinib -0.012

ACBD3 (UniProt Q9H3P7)
inactive: vemurafenib 0.013 | [1] 0.048 | barasertib 0.033 | [2] 0.009 | volasertib 0.001 | [3] 0.001 | [4] 0.016 | [5] 0.02 | saracatinib 0.008 | sotrastaurin 0.025 | alvocidib -0.006 | Tubastatin A -0.044 | [6] 0.029 | defactinib 0.003 | [7] -0.037 | encorafenib 0.004 | [8] -0.014 | alisertib -0.027 | [9] 0.004 | gefitinib -0.013
